Experimental data: patent publication US20230358760
For part of these data: Negatives hold for the conditions tested. For part of these data: Protein sequences can lack the tags named with them. For part of these data: Where cells or extracts were used, other partners may take part. The exact form of at least one protein or probe is not confirmed.

Protein sequences, listed by entry. Tags and fused reporters are not part of them. Residues count along the entry.
UniProt Q92583, 24-94: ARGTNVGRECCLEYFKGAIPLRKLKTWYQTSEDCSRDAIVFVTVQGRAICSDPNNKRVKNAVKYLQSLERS

Columns and labels:
[1] = biological target: T1, CXCL9 (MIG) (Homo sapiens) (UniProt Q07325); test: ELONA; details: purified recombinant protein
T1 sequence (looked up, limits assumed): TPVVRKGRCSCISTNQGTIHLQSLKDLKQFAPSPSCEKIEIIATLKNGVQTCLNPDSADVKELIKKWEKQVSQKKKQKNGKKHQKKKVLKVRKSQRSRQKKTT

[2] = biological target: T2, CXCL9, endogenous (macrophage supernatant) (Homo sapiens) (UniProt Q07325); test: flow cytometry; details: 150 nM DNA, reduced vs recombinant CXCL9, protein in an extract, protein details: captured by anti-CXCL9 antibody on magnetic beads, label: 5' biotin or Cy5, single-stranded DNA
T2 sequence (looked up, limits assumed): T1 sequence (looked up, limits assumed)

[3] = biological target: HSA (human serum albumin) (Homo sapiens) (UniProt P02768); test: ELONA; details: DNA at 2x KD, purified native protein, protein details: Sigma-Aldrich, label: 5' biotin or Cy5, single-stranded DNA, letters built from the parent sequence and the stated change
CCL3 (Homo sapiens) = biological target: T3, CCL3 (Homo sapiens) (UniProt P10147); test: ELONA; details: DNA at 2x KD, purified recombinant protein, protein details: Peprotech, label: 5' biotin or Cy5, single-stranded DNA, letters built from the parent sequence and the stated change
T3 sequence (looked up, limits assumed): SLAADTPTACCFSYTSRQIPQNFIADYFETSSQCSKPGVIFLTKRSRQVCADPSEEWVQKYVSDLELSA

[4] = biological target: T4, sCD25 (soluble interleukin-2 receptor) (Homo sapiens) (UniProt P01589); test: ELONA; details: DNA at 2x KD, purified recombinant protein, protein details: Antikorper online, label: 5' biotin or Cy5, single-stranded DNA, letters built from the parent sequence and the stated change
T4 sequence (looked up, limits assumed): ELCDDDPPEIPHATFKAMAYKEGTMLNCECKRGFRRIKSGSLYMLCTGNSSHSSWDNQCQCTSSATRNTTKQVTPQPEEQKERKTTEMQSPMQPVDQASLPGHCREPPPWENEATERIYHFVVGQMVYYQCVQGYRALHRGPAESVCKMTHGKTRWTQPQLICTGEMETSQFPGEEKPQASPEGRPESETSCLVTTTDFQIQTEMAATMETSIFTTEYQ

[5] = biological target: T5, CRP (C-reactive protein) (Homo sapiens) (UniProt P02741); test: ELONA; details: DNA at 2x KD, purified native protein, protein details: BioRad, label: 5' biotin or Cy5, single-stranded DNA, letters built from the parent sequence and the stated change
T5 sequence (looked up, limits assumed): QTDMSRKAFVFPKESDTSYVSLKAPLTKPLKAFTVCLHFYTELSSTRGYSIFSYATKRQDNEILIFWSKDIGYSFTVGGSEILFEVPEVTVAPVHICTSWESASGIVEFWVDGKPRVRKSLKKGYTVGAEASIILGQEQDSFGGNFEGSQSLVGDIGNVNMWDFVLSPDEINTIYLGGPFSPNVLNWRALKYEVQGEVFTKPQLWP

CCL22 (Homo sapiens) = biological target: T6, CCL22 (Homo sapiens) (UniProt O00626); test: ELONA; details: DNA at 2x KD, purified recombinant protein, protein details: BioLegend, label: 5' biotin or Cy5, single-stranded DNA, letters built from the parent sequence and the stated change
T6 sequence (looked up, limits assumed): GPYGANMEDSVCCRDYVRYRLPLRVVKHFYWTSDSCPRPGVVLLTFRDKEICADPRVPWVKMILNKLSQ

CXCL1 (Homo sapiens) = CXCL1 (Homo sapiens) (UniProt P09341); test: ELONA; details: DNA at 2x KD, purified recombinant protein, protein details: Cell guidance system, label: 5' biotin or Cy5, single-stranded DNA, letters built from the parent sequence and the stated change
CXCL10 (Homo sapiens) = CXCL10 (Homo sapiens) (UniProt P02778); test: ELONA; details: DNA at 2x KD, purified recombinant protein, protein details: Cell guidance system, label: 5' biotin or Cy5, single-stranded DNA, letters built from the parent sequence and the stated change
CCL17 (Homo sapiens) = CCL17 (Homo sapiens) (UniProt Q92583); test: ELONA; details: DNA at 2x KD, purified recombinant protein, protein details: BioLegend, label: 5' biotin or Cy5, single-stranded DNA, letters built from the parent sequence and the stated change
[6] = biological target: T1, CXCL9 (MIG) (Homo sapiens); test: flow cytometry; details: purified recombinant protein, single-stranded DNA
[7] = indole-clicked EdU at all N (28,44,47,49,50) [28,44,47,49,50 (indole-clicked EdU)]
[8] = indole-clicked EdU at all N [31,45,49,53 (indole-clicked EdU)], variant of G123 DNA

## CACGACGCAAGGGACCACAGGAGAGACTCACGGGCGGGCGACCTACTGTTCAGCCCAGACCGACAGCACGACACCGCAGAGGCA [I29 Am]
[1]; ethylamine-clicked EdU at all N [28,44,47,49,50 (ethylamine-clicked EdU)], 100 nM DNA, label: 5' biotin, single-stranded DNA, letters built from the parent sequence and the stated change, variant of I29 …
  binding result: no binding

## CACGACGCAAGGGACCACAGGAGAGACTCACGGGCGGGCGACCTACTGTTCAGCCCAGACCGACAGCACGACACCGCAGAGGCA [I29 E]
[1]; EdU at all N, not clicked [28,44,47,49,50 (EdU, not clicked)], 100 nM DNA, label: 5' biotin, single-stranded DNA, letters built from the parent sequence and the stated change, variant of I29 …
  binding result: no binding

## CACGACGCAAGGGACCACAGGAGAGACTCACGGGCGGGCGACCTACTGTTCAGCCCAGACCGACAGCACGACACCGCAGAGGCA [I29 Gua]
[1]; guanidine-clicked EdU at all N [28,44,47,49,50 (guanidine-clicked EdU)], 100 nM DNA, label: 5' biotin, single-stranded DNA, letters built from the parent sequence and the stated change, variant of I29 …
  binding result: no binding

## CACGACGCAAGGGACCACAGGAGAGACTCACGGGCGGGCGACCTACTGTTCAGCCCAGACCGACAGCACGACACCGCAGAGGCA [I29 Imi]
[1]; imidazole-clicked EdU at all N [28,44,47,49,50 (imidazole-clicked EdU)], 100 nM DNA, label: 5' biotin, single-stranded DNA, letters built from the parent sequence and the stated change, variant of I29 …
  binding result: no binding

## CACGACGCAAGGGACCACAGGAGAGACTCACGGGCGGGCGACCTACTGTTCAGCCCAGACCGACAGCACGACACCGCAGAGGCA [I29 In]
[2]; indole-clicked EdU at all N (28,44,47,49,50) [28,44,47,49,50 (indole-clicked EdU)], letters built from the parent sequence and the stated change
  binding result: binds
[3]; [7]
  binding result: no binding
CCL3 (Homo sapiens); [7]
  binding result: no binding
[4]; [7]
  binding result: no binding
[5]; [7]
  binding result: no binding
CCL22 (Homo sapiens); [7]
  binding result: no binding
CXCL1 (Homo sapiens); [7]
  binding result: no binding
CXCL10 (Homo sapiens); [7]
  binding result: no binding
CCL17 (Homo sapiens); [7]
  binding result: no binding

## CACGACGCAAGGGACCACAGGAGAGACTCACGGGCGGGCGACCTACTGTTCAGCCCAGACCGACAGCACGACACCGCAGAGGCA [I29 MePro]
[1]; methylpropane-clicked EdU at all N [28,44,47,49,50 (methylpropane-clicked EdU)], 100 nM DNA, label: 5' biotin, single-stranded …, letters built from the parent sequence and the stated change, variant of I29 In
  binding result: no binding

## CACGACGCAAGGGACCACAGGAGAGACTCACGGGCGGGCGACCTACTGTTCAGCCCAGACCGACAGCACGACACCGCAGAGGCA [I29 T28]
[1]; indole-clicked EdU at 44,47,49,50, 100 nM DNA, modification at 28 not important, label: 5' biotin, single-stranded DNA, variant of I29 In
  binding result: binds

## CACGACGCAAGGGACCACAGGAGAGACTCACGGGCGGGCGACCTACTGTTCAGCCCAGACCGACAGCACGACACCGCAGAGGCA [I29 Thio]
[1]; benzothiophene-clicked EdU at all N [28,44,47,49,50 (benzothiophene-clicked EdU)], 100 nM DNA, label: 5' biotin, single-stranded DNA, letters built from the parent sequence and the stated change, variant of I29 …
  binding result: binds

## CACGACGCAAGGGACCACAGGGAGGGAGGGTGGGCAAAGGGCCCTAAGTCCGTAACAAAAACACAGCACGACACCGCAGAGGCA [G123 Bn]
[6]; benzyl-clicked EdU at all N [31,45,49,53 (benzyl-clicked EdU)], 500 nM DNA, label: 5' Cy5, letters built from the parent sequence and the stated change, variant of G123 DNA
  binding result: binds

## CACGACGCAAGGGACCACAGGGAGGGAGGGTGGGCAAAGGGCCCTAAGTCCGTAACAAAAACACAGCACGACACCGCAGAGGCA [G123 DNA]
[2]
  binding result: binds
[6]; binding buffer without K+, 100 nM DNA, label: 5' biotin or Cy5
  binding result: no binding

## CACGACGCAAGGGACCACAGGGAGGGAGGGTGGGCAAAGGGCCCTAAGTCCGTAACAAAAACACAGCACGACACCGCAGAGGCA [G123 E-dU]
[1]; 5-ethynyl-dU (EdU) at all N, not clicked [31,45,49,53 (5-ethynyl-dU, not clicked)], label: 5' biotin or Cy5, single-stranded DNA, letters built from the parent sequence and the stated change, variant of G123 DNA
  binding result: binds

## CACGACGCAAGGGACCACAGGGAGGGAGGGTGGGCAAAGGGCCCTAAGTCCGTAACAAAAACACAGCACGACACCGCAGAGGCA [G123 Gua]
[6]; guanidine-clicked EdU at all N [31,45,49,53 (guanidine-clicked EdU)], 500 nM DNA, label: 5' Cy5, letters built from the parent sequence and the stated change, variant of G123 DNA
  binding result: binds

## CACGACGCAAGGGACCACAGGGAGGGAGGGTGGGCAAAGGGCCCTAAGTCCGTAACAAAAACACAGCACGACACCGCAGAGGCA [G123 In]
[2]; indole-clicked EdU at all N [31,45,49,53 (indole-clicked EdU)], letters built from the parent sequence and the stated change, variant of G123 DNA
  binding result: binds
[6]; indole-clicked EdU at all N [31,45,49,53 (indole-clicked EdU)], without K+ and NH4OAc, 100 nM DNA, label: 5' biotin or Cy5, letters built from the parent sequence and the stated change, variant of G123 DNA
  binding result: binds
[3]; [8]
  binding result: no binding
CCL3 (Homo sapiens); [8]
  binding result: no binding
[4]; [8]
  binding result: no binding
[5]; [8]
  binding result: no binding
CCL22 (Homo sapiens); [8]
  binding result: no binding
CXCL1 (Homo sapiens); [8]
  binding result: no binding
CXCL10 (Homo sapiens); [8]
  binding result: no binding
CCL17 (Homo sapiens); [8]
  binding result: no binding

## CACGACGCAAGGGACCACAGGGAGGGAGGGTGGGCAAAGGGCCCTAAGTCCGTAACAAAAACACAGCACGACACCGCAGAGGCA [G123 Phe]
[6]; phenol-clicked EdU at all N [31,45,49,53 (phenol-clicked EdU)], 500 nM DNA, label: 5' Cy5, letters built from the parent sequence and the stated change, variant of G123 DNA
  binding result: binds

## CACGACGCAAGGGACCACAGGGCACGTGCGAGGCGCTACATCACCGGTGCAAGCACCGTGCAACAGCACGACACCGCAGAGGCA [I29.sc]
[6]; N = EdU (indole-clicked), scrambled non-binding control, label: 5' Cy5, variant of I29 In
  binding result: no binding
